PubChem BioAssay AID504834 (National Center for Advancing Translational Sciences (NCATS), 2011)
In all, about 320,000 compounds went through this assay and about 22,000 (6.9%) were called active. This list was built around the results that the source calls inconclusive (neither active nor inactive); the mix of calls is not that of the screen. The call rests on the fitted dose curve; in most records, active means well fitted inhibition curve with a large enough effect; inconclusive means small, poorly fitted or top-dose-only effect, or another doubt; inactive means no such curve, though single readings can be large or run the other way. Potencies beside an inconclusive call are fits to weak or partial responses and may not hold up.

Experiment: Primary qHTS for delayed death inhibitors of the malarial parasite plastid, 96 hour incubation
Details: P. falciparum luciferase reporter growth; series mostly up to 28.7 µM
How it was run: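 Infected RBCs, 2% Hct / 0.05% parasitemia final; luciferase-reporter P. falciparum; cpd 96 h, 37 C, 5% CO2; luciferase detection reagent; luminescence.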
Potency means the concentration at half of the fitted maximal effect.

Structure (SMILES)	Potency
c1ccc(-c2noc(C3CCC3)n2)nc1	inactive
CCCCN(CC)CCNC(=O)CN(C)S(=O)(=O)c1ccc2c(c1)c(=O)n(C)c(=O)n2C	inconclusive: 0.0738 µM [inhibitor, full curve, poor fit]
O=C1CSC(=S)N1c1cccnc1	active: 13.1 µM
C=CCn1c(=O)c2c(nc3n2CC(C)CN3CCc2ccccc2)n(C)c1=O (centres undefined)	inconclusive: 13.1 µM [inhibitor, partial curve, poor fit]
COC(=O)c1ccc2c(=O)n(CCCCCC(=O)NCCNC(C)=O)c(=O)[nH]c2c1	inactive
C=CCOc1ccc(/C=N/NC(=O)C(C)Sc2ccccn2)cc1OCC (centres undefined)	inconclusive: 10.4 µM [inhibitor, single point]
CCOC(=O)c1nnn(-c2nonc2-n2cccc2)c1CN1CCC(C)CC1	inactive
CCN(CC(=O)NC1CCS(=O)(=O)C1)c1nc(-c2ccccc2)nc2ccccc12 (centres undefined)	inconclusive: 14.7 µM [inhibitor, partial curve, poor fit]
CSc1ccccc1NC(=O)CN(C)CC(=O)Nc1cc(C)ccc1C	inconclusive: 11.7 µM [inhibitor, single point]
C=CCNC(=S)NNC(=O)c1ccc(Br)o1	inactive
O=C(CS(=O)(=O)c1cn(Cc2ccc(Cl)cc2)c2ccccc12)N1CCOCC1	active: 8.28 µM
Cc1ccc(NC(=O)CNC(=O)c2ccco2)nc1	inconclusive: 14.7 µM [inhibitor, partial curve]
O=c1c2ccccc2nnn1-c1ccc(Br)cc1	inactive
COc1ccc(N2C(=O)C3CCCN3C2c2ccccc2OC)cc1 (centres undefined)	inconclusive: 10.4 µM [inhibitor, partial curve, poor fit]
CC1CCCCC12NC(=O)N(CC(=O)Nc1ccccc1-c1ccccc1)C2=O (centres undefined)	inconclusive: 0.928 µM [inhibitor, full curve, poor fit]
Cc1cc(C)cc(N(CC(=O)Nc2ccc(Br)cc2)S(=O)(=O)c2c(C)[nH]c(=O)[nH]c2=O)c1	inconclusive: 13.1 µM [inhibitor, single point]
Cc1cccc(C(=O)N2CCN(Cc3ccc4c(c3)OCO4)CC2)c1	inconclusive: 18.5 µM [inhibitor, single point]
CCc1ccccc1NC(=O)CN1CCN(C(=O)C2CCN(C(=O)/C=C/c3ccccc3)CC2)CC1	inactive
CN(/N=C/c1ccc(O)cc1O)c1nc(-c2ccccc2)cc(-c2ccccc2)n1	active: 5.22 µM
COc1cc(CN(C(=S)NCC(=O)NC2CC2)C2CCCC2)cc(OC)c1OC	inactive
COc1cc2c(cc1OC)CN(C(=O)CNS(=O)(=O)c1ccc(C)c(C)c1)CC2	inconclusive: 13.1 µM [inhibitor, single point]
CC(C)(C)c1ccc(OCCC(=O)OCC(=O)NC2CCS(=O)(=O)C2)cc1 (centres undefined)	inactive
Cc1ccc2c(c1)N(CCC(=O)NC1CCCCC1)C(=O)CO2	inactive

2 entries picked at random from those above, as already listed:
Structure (SMILES)	Potency
O=c1c2ccccc2nnn1-c1ccc(Br)cc1	inactive
O=C(CS(=O)(=O)c1cn(Cc2ccc(Cl)cc2)c2ccccc12)N1CCOCC1	active: 8.28 µM

Further entries:

Structure (SMILES)	Potency
Cc1ccc(NC(=O)c2ccc(-n3cncn3)c([N+](=O)[O-])c2)cc1	inconclusive: 11.7 µM [inhibitor, partial curve]
O=C(NCc1ccccc1)c1onc(CSc2nc3ccccc3[nH]2)c1C(=O)NCc1ccccc1	active: 1.85 µM
COc1ccc(Br)cc1C(=O)Nc1ccc(C(=O)O)cc1	inactive
O=C(CCN1CCN(S(=O)(=O)c2cccc([N+](=O)[O-])c2)CC1)Nc1ccccc1F	inconclusive: 1.31 µM [inhibitor, full curve]
O=C(COC(=O)C1CCCO1)Nc1cccc(C(F)(F)F)c1 (centres undefined)	active: 7.38 µM
Cc1c(C)n(CCC#N)c2ccc(Cl)cc12	inconclusive: 10.4 µM [inhibitor, single point]
CCNc1ncnc2c1cnn2C	inconclusive: 14.7 µM [inhibitor, partial curve, poor fit]
Cc1nn(-c2ccccc2)c2sc(C(=O)NCCN3CCOCC3)cc12	active: 3.7 µM
O=C(CN(C(=O)CCC(=O)Nc1nccs1)c1ccccc1F)NCc1ccccc1	inactive
O=C(CCCCCn1c(=S)[nH]c2cc3c(cc2c1=O)OCO3)N1CCN(C(=O)c2ccco2)CC1	inconclusive: 0.0657 µM [inhibitor, full curve, poor fit]
COc1cc(OC)cc(C(=O)NCCCN2CCOCC2)c1	inconclusive: 18.5 µM [inhibitor, single point]
C/C=C/c1ccc(OCC(=O)Nc2cc(Cl)ccc2-n2cncn2)c(OC)c1	active: 11.7 µM
CC(C)C[C@H](NC(=O)[C@@H](O)[C@H](N)Cc1ccccc1)C(=O)O	active: 0.675 µM
Cn1c(SCC(=O)NC2CC2)nnc1C(F)(F)F	inconclusive: 18.5 µM [inhibitor, single point]
CN(C)c1cc(-c2ccc(Br)cc2)oc(=O)c1Cl	inconclusive: 18.5 µM [inhibitor, single point]
CCN(CC)CCN(Cc1cc2cc3c(cc2[nH]c1=O)OCO3)C(=S)NCc1ccco1	active: 6.57 µM
Cc1cc(=O)c(C(=O)Nc2cccc(N3CCCC3=O)c2)nn1-c1ccccc1Cl	inconclusive: 13.1 µM [inhibitor, single point]
CCCCn1c(NC(=O)c2ccc(Br)o2)c(C(=O)OCC)c2nc3ccccc3nc21	inactive
CCCCSc1nc(C)c(CC(=O)OC)c(=O)[nH]1	inconclusive: 11.7 µM [inhibitor, single point]
COc1ccc(C(=O)N2CCN(CCCc3ccccc3)CC2)cc1OC	inconclusive: 8.28 µM [inhibitor, partial curve, poor fit]
COc1ccc(-c2nnco2)cc1OC	inconclusive: 18.5 µM [inhibitor, single point]
CCCS(=O)(=O)c1c(S(=O)(=O)CCC)c2c(N)cccn2c1C(=O)c1ccc(Br)cc1	inactive
Nc1nc(SCc2ccc(Cl)c(Cl)c2)n[nH]1	inconclusive: 18.5 µM [inhibitor, single point]

Structure (SMILES)	Potency
S=c1[nH]cc(-c2ccccc2)n1-c1ccccc1Cl	inconclusive: 18.5 µM [inhibitor, single point]
Cc1cc(C)cc(N(CC(=O)Nc2ccccc2-c2ccccc2)S(=O)(=O)c2ccccc2)c1	inconclusive: 13.1 µM [inhibitor, single point]
CCN(CC)c1nc(N2CCOCC2)nc2ccccc12	inconclusive: 7.38 µM [inhibitor, partial curve]
CC(C)C(=O)Nc1ccc(N2CCCC2)c(Cl)c1	inactive
CC(Oc1ccc(-c2ccccc2)c(F)c1)c1ccn(S(=O)(=O)c2ccc(F)cc2)n1 (centres undefined)	inconclusive: 11.7 µM [inhibitor, single point]
O=C(c1ccc(S(=O)(=O)N2CCCC2)cc1)N(Cc1ccco1)C1CCS(=O)(=O)C1 (centres undefined)	inactive
Cc1ccc(NC(=O)c2nc[nH]c2C(=O)N[C@@H](C)c2ccccc2)cc1	inconclusive: 9.28 µM [inhibitor, single point]
Cc1ccc(-c2noc(CCC(=O)NCCN3CCOCC3)n2)cc1	inactive
COc1ccc(S(=O)(=O)N2CCOC2CNC(=O)C(=O)NCc2ccncc2)cc1 (centres undefined)	inconclusive: 14.7 µM [inhibitor, partial curve, poor fit]
CC(=O)O[C@H]1CC(C)(C)C(=C=C/C(C)=C/C=C/C(C)=C/C=C/C=C(C)/C=C/C=C(\C)C(=O)C[C@@]23O[C@]2(C)C[C@@H](O)CC3(C)C)[C@](C)(O)C1	inconclusive: 2.62 µM [inhibitor, partial curve, poor fit]
CCn1c(CCNC(=O)c2ccc(OC)cc2)nnc1SCc1ccc(Cl)c(Cl)c1	inconclusive: 1.85 µM [inhibitor, partial curve, poor fit]
Cc1c[n+](CC(=O)c2ccccc2)c(C)cn1	inconclusive: 10.4 µM [inhibitor, single point]
CCC(=O)c1ccc(OCc2ccccc2)c(OC)c1	inconclusive: 14.7 µM [inhibitor, partial curve, poor fit]
Cc1ccccc1OCC(=O)NCC(c1ccco1)N1CCCCC1 (centres undefined)	inconclusive: 0.415 µM [inhibitor, full curve]
O=C(COc1ccc2ccc(=O)oc2c1)NC1CCCC1	inconclusive: 13.1 µM [inhibitor, single point]
O=c1c2ccccc2nc2n1C(CSc1ccc(F)cc1)CN2 (centres undefined)	inconclusive: 0.165 µM [inhibitor, full curve, poor fit]
CCOc1ccc(N2CC(C(=O)N3CCN(c4ccccn4)CC3)CC2=O)cc1 (centres undefined)	inconclusive: 11.7 µM [inhibitor, partial curve, poor fit]
CNc1nc(CC(C)=O)ns1	inconclusive: 13.1 µM [inhibitor, partial curve, poor fit]
N#C/C(=C(/O)c1ccc(-c2cccc([N+](=O)[O-])c2)o1)c1nc2ccccc2s1	inconclusive: 3.29 µM [inhibitor, single point]
OC(COCCOc1ccc(Br)cc1)CN1CCN(Cc2ccccc2)CC1 (centres undefined)	inconclusive: 18.5 µM [inhibitor, single point]
c1ccc(CN2CCC(=NNc3nc4ccccc4[nH]3)CC2)cc1	inconclusive: 11.7 µM [inhibitor, single point]
COc1cc(C(C)=O)ccc1OCC(O)CN1CCN(c2cc(C)cc(C)c2)CC1 (centres undefined)	inconclusive: 13.1 µM [inhibitor, single point]
O=C(NCCCN1CCCC1=O)Nc1ccc([N+](=O)[O-])cc1	inconclusive: 14.7 µM [inhibitor, single point]

Looked up above:
COc1ccc(N2C(=O)C3CCCN3C2c2ccccc2OC)cc1 (centres undefined) | Potency: inconclusive: 10.4 µM [inhibitor, partial curve, poor fit]
CCN(CC)CCN(Cc1cc2cc3c(cc2[nH]c1=O)OCO3)C(=S)NCc1ccco1 | Potency: active: 6.57 µM
